Reference: paper doi:10.1101/2020.08.12.246660
No constants are given. Whether binding was seen depends on the method and setting. In cells and extracts the contact can be indirect. Some binding calls cover weakened binding; strength is not graded here.

Chains of the proteins cited; added tags and fusions are not shown.
UniProt O14744: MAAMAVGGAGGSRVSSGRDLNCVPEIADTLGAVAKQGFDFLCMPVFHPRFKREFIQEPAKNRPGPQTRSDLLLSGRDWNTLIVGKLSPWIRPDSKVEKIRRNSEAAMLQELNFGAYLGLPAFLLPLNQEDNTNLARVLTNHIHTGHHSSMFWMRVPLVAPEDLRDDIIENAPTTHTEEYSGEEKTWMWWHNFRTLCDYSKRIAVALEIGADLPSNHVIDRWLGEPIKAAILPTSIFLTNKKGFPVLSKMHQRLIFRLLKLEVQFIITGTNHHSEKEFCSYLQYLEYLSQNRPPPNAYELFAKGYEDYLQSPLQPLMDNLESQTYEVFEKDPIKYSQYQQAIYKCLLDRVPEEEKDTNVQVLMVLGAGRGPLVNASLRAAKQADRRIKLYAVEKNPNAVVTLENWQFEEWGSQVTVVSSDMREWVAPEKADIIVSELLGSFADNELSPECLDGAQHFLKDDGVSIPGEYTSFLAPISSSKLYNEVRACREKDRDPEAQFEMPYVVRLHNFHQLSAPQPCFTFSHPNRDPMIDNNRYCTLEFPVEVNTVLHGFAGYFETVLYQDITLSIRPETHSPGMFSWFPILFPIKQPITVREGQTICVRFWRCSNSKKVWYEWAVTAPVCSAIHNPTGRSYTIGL
UniProt P31749: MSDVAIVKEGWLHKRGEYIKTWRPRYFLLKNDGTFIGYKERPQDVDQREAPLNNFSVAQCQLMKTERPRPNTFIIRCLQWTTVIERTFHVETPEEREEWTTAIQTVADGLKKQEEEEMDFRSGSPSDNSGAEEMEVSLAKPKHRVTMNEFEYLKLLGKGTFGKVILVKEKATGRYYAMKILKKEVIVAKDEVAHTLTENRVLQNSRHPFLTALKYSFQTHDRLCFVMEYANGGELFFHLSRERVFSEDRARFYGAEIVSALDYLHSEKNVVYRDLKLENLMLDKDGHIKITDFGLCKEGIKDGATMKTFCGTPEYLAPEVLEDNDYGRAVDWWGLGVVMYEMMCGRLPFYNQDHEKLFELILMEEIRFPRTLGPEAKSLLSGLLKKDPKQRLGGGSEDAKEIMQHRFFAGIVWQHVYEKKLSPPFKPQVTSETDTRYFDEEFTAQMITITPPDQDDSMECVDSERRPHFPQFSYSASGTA

Molecular target: Protein arginine methyltransferase 5 (human (endogenous in CHLA20 and NGP)) (UniProt O14744)
Assay: co-IP

binding: binds
Substance: AKT1 (from UniProt P31749 1-480)
